Experimental data published in US20070004622A1.
No constants are given. Whether binding was seen depends on the method and setting. Some results given as binding are weak or reduced against the parent protein; the word gives no strength.

Chains of the proteins cited; added tags and fusions are not shown. Lines headed by an entry give the natural chain unless they say otherwise; changes in a name come on top.
UniProt P06756: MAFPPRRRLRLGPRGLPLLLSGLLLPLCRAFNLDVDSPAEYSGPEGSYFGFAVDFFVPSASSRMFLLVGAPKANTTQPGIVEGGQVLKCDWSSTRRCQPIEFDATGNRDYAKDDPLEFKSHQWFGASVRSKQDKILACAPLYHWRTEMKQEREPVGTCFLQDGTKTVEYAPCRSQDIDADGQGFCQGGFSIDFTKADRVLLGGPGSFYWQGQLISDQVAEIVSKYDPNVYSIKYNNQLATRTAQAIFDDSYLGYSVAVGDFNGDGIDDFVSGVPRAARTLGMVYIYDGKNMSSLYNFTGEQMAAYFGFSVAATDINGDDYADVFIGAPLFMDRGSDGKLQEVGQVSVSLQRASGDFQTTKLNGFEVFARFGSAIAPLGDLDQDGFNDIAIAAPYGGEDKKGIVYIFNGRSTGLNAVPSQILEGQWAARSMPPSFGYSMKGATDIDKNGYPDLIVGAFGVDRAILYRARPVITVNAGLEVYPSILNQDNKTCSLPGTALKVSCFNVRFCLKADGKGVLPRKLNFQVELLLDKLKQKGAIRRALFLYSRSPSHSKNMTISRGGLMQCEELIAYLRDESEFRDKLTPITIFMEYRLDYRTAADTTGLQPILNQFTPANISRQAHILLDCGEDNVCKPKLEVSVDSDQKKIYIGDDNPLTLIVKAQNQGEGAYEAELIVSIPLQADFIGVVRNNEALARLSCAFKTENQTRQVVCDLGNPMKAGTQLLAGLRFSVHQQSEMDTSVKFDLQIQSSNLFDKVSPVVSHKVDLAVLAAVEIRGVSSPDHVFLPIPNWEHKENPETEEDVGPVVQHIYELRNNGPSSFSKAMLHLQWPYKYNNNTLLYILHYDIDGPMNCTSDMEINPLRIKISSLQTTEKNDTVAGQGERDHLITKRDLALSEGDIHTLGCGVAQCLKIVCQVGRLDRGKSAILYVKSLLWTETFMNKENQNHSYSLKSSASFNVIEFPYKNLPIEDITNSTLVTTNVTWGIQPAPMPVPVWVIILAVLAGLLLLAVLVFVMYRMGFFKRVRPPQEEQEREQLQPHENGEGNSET
UniProt P05106: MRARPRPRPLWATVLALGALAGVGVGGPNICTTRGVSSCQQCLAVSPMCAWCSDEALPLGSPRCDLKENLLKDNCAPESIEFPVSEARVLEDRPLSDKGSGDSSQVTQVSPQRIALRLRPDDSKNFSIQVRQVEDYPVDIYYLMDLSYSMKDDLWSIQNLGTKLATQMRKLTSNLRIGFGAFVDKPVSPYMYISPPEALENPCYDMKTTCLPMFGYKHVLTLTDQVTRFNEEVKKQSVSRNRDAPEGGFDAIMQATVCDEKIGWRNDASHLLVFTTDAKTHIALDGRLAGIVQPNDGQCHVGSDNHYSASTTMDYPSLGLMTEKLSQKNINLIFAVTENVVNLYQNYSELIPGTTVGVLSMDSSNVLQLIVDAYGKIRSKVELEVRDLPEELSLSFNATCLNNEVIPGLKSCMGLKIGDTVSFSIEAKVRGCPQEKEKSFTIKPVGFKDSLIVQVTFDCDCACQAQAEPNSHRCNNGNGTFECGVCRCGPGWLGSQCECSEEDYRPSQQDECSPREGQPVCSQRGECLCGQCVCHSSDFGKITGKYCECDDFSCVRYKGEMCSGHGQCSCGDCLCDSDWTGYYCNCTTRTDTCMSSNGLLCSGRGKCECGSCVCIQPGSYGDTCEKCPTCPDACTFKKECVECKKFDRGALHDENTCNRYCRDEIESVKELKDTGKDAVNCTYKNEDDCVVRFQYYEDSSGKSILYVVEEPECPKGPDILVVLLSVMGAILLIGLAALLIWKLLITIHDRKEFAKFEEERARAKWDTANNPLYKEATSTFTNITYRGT

Target: αvβ3 integrin (human) (UniProt P06756+P05106)
Test: biotin-βig-h3 incubated with HUVECs at 4° C., lysates blotted with streptavidin-HRP

B1: biotinylated βig-h3 (ligand)
chain: YQRKICGKSTVISYECCPGYEKVPGEKGCPAALPLSNLYETLGVVGSTTTQLYTDRTEKLRPEMEGPGSFTIFAPSNEAWASLPAEVLDSLVSNVNIELLNALRYHMVGRRVLTDELKHGMTLTSMYQNSNIQIHHYPNGIVTVNCARLLKADHHATNGVVHLIDKVISTITNNIQQIIEIEDTFETLRAAVAASGLNTMLEGNGQYTLLAPTNEAFEKIPSETLNRILGDPEALRDLLNNHILKSAMCAEAIVAGLSVETLEGTTLEVGCSGDMLTINGKAIISNKDILATNGVIHYIDELLIPDSAKTLFELAAESDVSTAIDLFRQAGLGNHLSGSERLTLLAPLNSVFKDGTPPIDAHTRNLLRNHIIKDQLASKYLYHGQTLETLGGKKLRVFVYRNSLCIENSCIAAHDKRGRYGTLFTMDRVLTPPMGTVMDVLKGDNRFSMLVAAIQSAGLTETLNREGVYTVFAPTNEAFRALPPRERSRLLGDAKELANILKYHIGDEILVSGGIGALVRLKSLQGDKLEVSLKNNVVSVNKEPVAEPDIMATNGVVHVITNVLQPPANRPQERGDELADSALEI
modifications: biotinylated (sites not given)
binding: binds
